Results are given in words; binding and its absence hold for the method and conditions named. Binding seen in cells or lysates may run through a third protein. Some results given as binding are weak or reduced against the parent protein; the word gives no strength. For some assays here: Tags and fused reporters may be left off the sequences shown.
How the values were obtained:
[1] = target: Flag-GluA2 (wild type), expressed in N2a cells (human) (UniProt P42262); assay: co-IP; N2a cells co-transfected with Flag-GluA2 constructs and HA-GluA1 or HA-GluA3; control and SELENOK-KO cells, with or without a SELENOK overexpression plasmid; antibody on magnetic beads, Western blot
[2] = target: Flag-GluA2 (wild type), expressed in HEK293 cells (human) (UniProt P42262); assay: co-IP; HEK293 cells co-expressing Flag-GluA2 and HA-DHHC6; antibody on magnetic beads, lysate, Western blot; which partner was precipitated is not told

The chains behind the UniProt entries cited, without tags or fusion partners. Residues count along the entry.
UniProt P42262, residues 25-883: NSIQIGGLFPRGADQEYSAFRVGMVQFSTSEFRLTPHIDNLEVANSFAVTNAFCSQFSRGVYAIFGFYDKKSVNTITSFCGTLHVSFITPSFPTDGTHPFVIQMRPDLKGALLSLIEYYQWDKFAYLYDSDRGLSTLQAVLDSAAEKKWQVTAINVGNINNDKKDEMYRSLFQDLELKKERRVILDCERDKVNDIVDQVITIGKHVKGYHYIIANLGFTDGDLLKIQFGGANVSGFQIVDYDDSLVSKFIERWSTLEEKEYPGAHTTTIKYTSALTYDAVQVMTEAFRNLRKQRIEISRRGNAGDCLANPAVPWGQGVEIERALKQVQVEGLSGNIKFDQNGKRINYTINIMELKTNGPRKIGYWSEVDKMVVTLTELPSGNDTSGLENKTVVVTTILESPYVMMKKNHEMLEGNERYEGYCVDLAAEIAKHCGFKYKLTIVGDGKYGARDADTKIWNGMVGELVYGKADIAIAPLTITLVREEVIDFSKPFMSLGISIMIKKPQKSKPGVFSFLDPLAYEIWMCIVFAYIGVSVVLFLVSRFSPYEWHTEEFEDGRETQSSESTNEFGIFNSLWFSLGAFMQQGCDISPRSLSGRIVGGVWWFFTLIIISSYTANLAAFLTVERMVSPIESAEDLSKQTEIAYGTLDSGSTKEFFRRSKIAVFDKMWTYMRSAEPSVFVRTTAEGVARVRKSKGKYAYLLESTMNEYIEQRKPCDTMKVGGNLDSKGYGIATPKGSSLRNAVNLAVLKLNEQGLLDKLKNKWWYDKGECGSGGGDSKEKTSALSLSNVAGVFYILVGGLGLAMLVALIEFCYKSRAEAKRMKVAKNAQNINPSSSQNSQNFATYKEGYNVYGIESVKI
UniProt P42263, residues 29-894: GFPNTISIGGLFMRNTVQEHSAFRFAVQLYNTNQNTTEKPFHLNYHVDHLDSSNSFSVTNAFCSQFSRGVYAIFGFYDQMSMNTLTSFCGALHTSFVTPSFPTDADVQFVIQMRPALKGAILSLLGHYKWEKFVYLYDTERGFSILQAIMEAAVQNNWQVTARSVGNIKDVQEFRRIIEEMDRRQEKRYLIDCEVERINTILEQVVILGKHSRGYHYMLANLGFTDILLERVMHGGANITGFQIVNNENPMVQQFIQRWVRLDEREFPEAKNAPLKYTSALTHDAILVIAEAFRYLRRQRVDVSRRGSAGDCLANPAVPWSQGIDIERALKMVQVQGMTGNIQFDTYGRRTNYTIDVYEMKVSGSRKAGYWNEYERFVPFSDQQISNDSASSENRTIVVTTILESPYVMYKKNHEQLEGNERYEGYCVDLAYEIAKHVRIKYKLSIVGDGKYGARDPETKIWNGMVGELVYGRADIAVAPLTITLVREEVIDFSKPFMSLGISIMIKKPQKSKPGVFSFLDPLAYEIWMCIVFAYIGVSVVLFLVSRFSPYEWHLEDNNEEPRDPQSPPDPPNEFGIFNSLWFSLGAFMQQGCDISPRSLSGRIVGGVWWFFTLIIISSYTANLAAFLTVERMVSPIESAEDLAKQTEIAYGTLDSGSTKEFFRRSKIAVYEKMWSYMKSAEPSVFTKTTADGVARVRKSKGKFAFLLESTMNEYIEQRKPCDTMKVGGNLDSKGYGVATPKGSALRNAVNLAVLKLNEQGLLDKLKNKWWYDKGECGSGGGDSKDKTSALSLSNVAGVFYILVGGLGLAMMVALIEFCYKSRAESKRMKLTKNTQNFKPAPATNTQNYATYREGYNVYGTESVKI

Row | binding [1] | binding [2] | Molecule
1 | binds | – | HA-GluA3 (from UniProt P42263 29-894) (receptor)
2 | – | binds | HA-DHHC6 (enzyme, UniProt Q9H6R6 1-413) MGTFCSVIKFENLQELKRLCHWGPIIALGVIAICSTMAMIDSVLWYWPLHTTGGSVNFIMLINWTVMILYNYFNAMFVGPGFVPLGWKPEISQDTMYLQYCKVCQAYKAPRSHHCRKCNRCVMKMDHHCPWINNCCGYQNHASFTLFLLLAPLGCIHAAFIFVMTMYTQLYHRLSFGWNTVKIDMSAARRDPLPIVPFGLAAFATTLFALGLALGTTIAVGMLFFIQMKIILRNKTSIESWIEEKAKDRIQYYQLDEVFVFPYDMGSRWRNFKQVFTWSGVPEGDGLEWPVREGCHQYSLTIEQLKQKADKRVRSVRYKVIEDYSGACCPLNKGIKTFFTSPCTEEPRIQLQKGEFILATRGLRYWLYGDKILDDSFIEGVSRIRGWFPRKCVEKCPCDAETDQAPEGEKKNR

From PMC12446660
